From US7064141B1, “Method for preventing, treating or inhibiting development of simple retinopathy and preproliferative retinopathy” (Takeda Pharmaceutical Company Limited, priority 1999, dated 2006)

Assay: Plasma glucose of diabetic rats (STZ-injected SHRSP)
Type: in vivo, rat
Procedure: • Compound 1: (±)-1-(cyclohexyloxycarbonyloxy) ethyl-2-ethoxy-1-[[2′-(1H-tetrazol-5-yl)biphenyl-4-yl]methyl]-1H-benzimidazole-7-carboxylate (Compound 1) Method: Streptozotocin (STZ) was intravenously injected at a dose of 30 mg/kg to 10-week old male rats (Stroke-Prone Spontaneously Hypertensive Rat:SHRSP). When 9 weeks had passed since the injection of STZ, the blood sugar values of the rats were measured. The rats were divided into 3 groups, that is, a group before the administration, a solvent-administered control group and an administered group with the compound 1 (3 mg/kg/day, p.o.). Four weeks after, the blood sugar values and the retinal potentials were measured, and then, the rats were killed by bleeding by discission of the aorta abdominalis under deep ether anesthetization so as to remove the eyeball. A suspension of the compound 1 in a 0.5% methylcellulose-containing physiological saline was orally administered to the rats once a day for 4 weeks. On the other hand, 23-week old SHRSP rats were used as an untreated group.
The blood sugar value was measured by the following method. The blood was collected from the veins of the tails using heparin and subjected to centrifugation to collect the blood plasma. The amount of glucose in the plasma was measured using an autoanalyzer (Model 7070, manufactured by Hitachi Seisakusho).

Which results are given for `CCOc1nc2cccc(C(=O)OC(C)OC(=O)OC3CCCCC3)c2n1Cc1ccc(-c2ccccc2-c2nnn[nH]2)cc1` (racemic) [Compound 1, (±)-1-(cyclohexyloxycarbonyloxy) ethyl-2-ethoxy-1-[[2′-(1H-tetrazol-5-yl)biphenyl-4-yl]methyl]-1H-benzimidazole-7-carboxylate]?
Plasma glucose (STZ-diabetic SHRSP rats, 3 mg/kg/day p.o. once a day for 4 weeks, n = 4, average ± standard deviation): 525 ± 35 mg/dL; Concentration of glucose in the plasma, in words (compared with the group before the administration and the control group, 3 mg/kg/day p.o., 4 weeks): no difference in concentration
